PubChem BioAssay AID686938, Drosophila RNAi Screening Center – 2013
Purpose: 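Knock-downs reducing store-operated calcium influx in Drosophila cells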 (primary screen). System: Drosophila S2R+ cells. Reagents: long dsRNA against Drosophila genes, about 0.25 µg dsRNA per well, roughly 10,000 cells. Duration: 5 days of knock-down before the calcium assay. Conditions: thapsigargin (SERCA pump blocker) to empty calcium stores; entry signal taken 4 min after adding it. Read-out: 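Per-well fluo-4 fluorescence in two replicates, unnormalised, measured in resting cells and 4 min after store depletion by the SERCA blocker thapsigargin; ratio of the two present in few wells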. Scale: calcium entry signal: higher = stronger calcium signal after store depletion; resting calcium signal: higher = higher resting calcium signal. Hit rule: 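Hit if the duplicate-averaged plate z-score for entry over resting signal is under −3; wells with weak total dye signal (Fmax z < −2) or more than 5 off-targets removed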. Meaning of the calls: active = strongly reduced calcium entry; inactive = no strong reduction.
The deposit covers about 23,000 reagents; below is a random part of those that have a named target and a result. In the full data, 75 (0.33%) are marked active. 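Raw plate signals without normalisation; calls rest on plate z-scores that were not deposited; ratio present for only 364 wells.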 A number with no mark means an inactive call. Reagents against one gene are numbered here. Reagent sequences are not shown. The record does not give: the dose of the treatment.

| Target gene | reagent no. | calcium entry signal, replicate 1 (fluorescence units) | calcium entry signal, replicate 2 (fluorescence units) | resting calcium signal, replicate 1 (fluorescence units) | resting calcium signal, replicate 2 (fluorescence units) |
| --- | --- | --- | --- | --- | --- |
| GluRS-m | 1 | 3.92e7 | 6.34e7 | 1.83e7 | 2.42e7 |
| CG18223 | 1 | 1.84e7 | 3.23e7 | 1.01e7 | 1.53e7 |
| CG14200 | 1 | 4.29e7 | 4.16e7 | 2.33e7 | 2.04e7 |
| CG14200 | 2 | 3.47e7 | 3.64e7 | 1.62e7 | 1.37e7 |
| Ncc69 | 1 | 5.11e7 | 4.42e7 | 3.56e7 | 1.90e7 |
| Ncc69 | 2 | 3.04e7 | 3.46e7 | 1.67e7 | 1.46e7 |
| sca | 1 | 3.82e7 | 3.64e7 | 1.97e7 | 1.54e7 |
| bin3 | 1 | 5.63e7 | 4.11e7 | 2.72e7 | 1.97e7 |
| ine | 1 | 3.36e7 | – | 1.65e7 | – |
| CG12376 | 1 | 4.98e7 | 4.00e7 | 1.94e7 | 1.84e7 |
| CG31368 | 1 | 4.03e7 | 3.50e7 | 1.86e7 | 1.79e7 |
| CG31368 | 2 | 2.96e7 | 3.37e7 | 1.32e7 | 1.58e7 |
| Sur-8 | 1 | 3.42e7 | 4.84e7 | 1.57e7 | 6.64e7 |
| Rpp14b | 1 | 2.78e7 | 6.92e7 | 1.57e7 | 2.52e7 |
| CARPA | 1 | 3.21e7 | 3.04e7 | 1.55e7 | 1.48e7 |
| CARPA | 2 | 2.89e7 | 4.03e7 | 1.56e7 | 1.81e7 |
| CR32511 | 1 | 6.99e7 | 2.93e7 | 2.75e7 | 1.57e7 |

Records listed so far whose gene name begins with S or s:
| Target gene | reagent no. | calcium entry signal, replicate 1 (fluorescence units) | calcium entry signal, replicate 2 (fluorescence units) | resting calcium signal, replicate 1 (fluorescence units) | resting calcium signal, replicate 2 (fluorescence units) |
| --- | --- | --- | --- | --- | --- |
| sca | 1 | 3.82e7 | 3.64e7 | 1.97e7 | 1.54e7 |
| Sur-8 | 1 | 3.42e7 | 4.84e7 | 1.57e7 | 6.64e7 |

More reagents follow.
| Target gene | reagent no. | calcium entry signal, replicate 1 (fluorescence units) | calcium entry signal, replicate 2 (fluorescence units) | resting calcium signal, replicate 1 (fluorescence units) | resting calcium signal, replicate 2 (fluorescence units) |
| --- | --- | --- | --- | --- | --- |
| CG42853 | 1 | 4.15e7 | 4.48e7 | 1.91e7 | 2.52e7 |
| SecS | 1 | 4.76e7 | 3.31e7 | 2.33e7 | 1.58e7 |
| Nplp3 | 1 | 3.47e7 | 5.05e7 | 1.63e7 | 2.37e7 |
| btsz | 1 | 3.31e7 | 4.65e7 | 1.67e7 | 6.46e7 |
| btsz | 2 | 3.44e7 | 4.66e7 | 1.61e7 | 5.72e7 |
| btsz | 3 | 3.20e7 | 4.36e7 | 1.60e7 | 7.28e7 |
| btsz | 4 | 3.25e7 | 4.76e7 | 1.62e7 | 7.93e7 |
| btsz | 5 | 2.97e7 | 3.16e7 | 1.79e7 | 1.50e7 |
| CG1136 | 1 | 4.36e7 | 3.56e7 | 2.79e7 | 1.48e7 |
| Boot | 1 | 3.39e7 | 3.18e7 | 1.57e7 | 1.41e7 |
| Hey | 1 | 3.06e7 | 3.88e7 | 1.60e7 | 1.70e7 |
| Hey | 2 | 4.72e7 | 2.94e7 | 2.37e7 | 1.36e7 |
| MESR6 | 1 | 4.46e7 | 5.66e7 | 2.00e7 | 3.74e7 |
| Phax | 1 | 5.02e7 | 4.59e7 | 2.25e7 | 1.91e7 |
| CG7544 | 1 | 3.66e7 | 2.15e7 | 1.91e7 | 1.14e7 |
| LysRS | 1 | 2.64e7 | 3.05e7 | 1.30e7 | 1.44e7 |
| Dp | 1 | 1.61e7 | 1.93e7 | 8.23e6 | 9.96e6 |
| Not10 | 1 | 4.13e7 | 5.11e7 | 1.74e7 | 2.15e7 |
| CG12236 | 1 | 2.91e7 | 3.67e7 | 1.88e7 | 1.76e7 |
| CG12236 | 2 | 4.09e7 | 4.74e7 | 1.95e7 | 2.21e7 |
| cdm | 1 | 5.65e7 | 3.51e7 | 2.57e7 | 1.44e7 |
| Ndc1 | 1 | 3.52e7 | 2.86e7 | 2.00e7 | 1.63e7 |
| CG7406 | 1 | 4.38e7 | 4.30e7 | 2.00e7 | 1.96e7 |
